Test results: PMC11549449
Results are given in words; binding and its absence hold for the method and conditions named. In cells and extracts the contact can be indirect. A result given as binding can be weak or reduced; the word gives no strength. Each block holds one substance with its values, some of them ahead of it.

Amino acid sequences for entries named in this document (tags omitted). A change or cut given only in a name is not applied to a line headed by its entry.
UniProt P28063: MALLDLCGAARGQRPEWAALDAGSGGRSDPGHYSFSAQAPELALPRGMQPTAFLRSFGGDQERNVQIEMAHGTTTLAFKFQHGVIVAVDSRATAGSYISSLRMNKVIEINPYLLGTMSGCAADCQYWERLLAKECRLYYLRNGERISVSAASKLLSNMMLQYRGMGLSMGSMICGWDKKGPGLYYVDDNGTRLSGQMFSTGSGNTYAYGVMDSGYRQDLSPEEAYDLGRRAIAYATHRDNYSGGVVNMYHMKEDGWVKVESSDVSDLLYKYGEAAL
UniProt P28062: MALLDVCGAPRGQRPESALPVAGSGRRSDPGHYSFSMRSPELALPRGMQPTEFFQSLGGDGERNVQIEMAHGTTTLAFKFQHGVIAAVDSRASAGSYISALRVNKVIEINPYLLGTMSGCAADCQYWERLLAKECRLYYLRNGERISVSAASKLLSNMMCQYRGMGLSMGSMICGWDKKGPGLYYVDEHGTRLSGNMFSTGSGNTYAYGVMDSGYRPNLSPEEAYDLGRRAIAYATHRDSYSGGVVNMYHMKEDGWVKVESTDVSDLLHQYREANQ
UniProt O35303: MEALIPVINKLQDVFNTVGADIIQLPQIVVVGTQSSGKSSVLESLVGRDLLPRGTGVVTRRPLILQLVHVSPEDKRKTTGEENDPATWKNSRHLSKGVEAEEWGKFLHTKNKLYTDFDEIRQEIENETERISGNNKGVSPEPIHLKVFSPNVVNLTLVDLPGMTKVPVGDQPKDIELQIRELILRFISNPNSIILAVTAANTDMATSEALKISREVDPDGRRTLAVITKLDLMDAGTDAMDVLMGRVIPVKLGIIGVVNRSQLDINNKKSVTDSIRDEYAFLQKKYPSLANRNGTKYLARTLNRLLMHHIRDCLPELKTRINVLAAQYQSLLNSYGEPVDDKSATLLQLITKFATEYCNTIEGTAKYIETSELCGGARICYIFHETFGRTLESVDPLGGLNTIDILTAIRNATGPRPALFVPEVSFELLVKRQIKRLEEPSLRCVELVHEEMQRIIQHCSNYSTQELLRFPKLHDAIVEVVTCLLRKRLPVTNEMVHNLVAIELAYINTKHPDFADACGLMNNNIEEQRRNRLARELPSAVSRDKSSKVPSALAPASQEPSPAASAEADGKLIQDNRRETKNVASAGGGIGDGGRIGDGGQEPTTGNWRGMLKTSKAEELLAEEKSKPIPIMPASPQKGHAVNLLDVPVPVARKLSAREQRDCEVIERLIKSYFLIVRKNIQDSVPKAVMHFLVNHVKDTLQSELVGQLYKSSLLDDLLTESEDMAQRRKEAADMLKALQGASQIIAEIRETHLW
UniProt O00429: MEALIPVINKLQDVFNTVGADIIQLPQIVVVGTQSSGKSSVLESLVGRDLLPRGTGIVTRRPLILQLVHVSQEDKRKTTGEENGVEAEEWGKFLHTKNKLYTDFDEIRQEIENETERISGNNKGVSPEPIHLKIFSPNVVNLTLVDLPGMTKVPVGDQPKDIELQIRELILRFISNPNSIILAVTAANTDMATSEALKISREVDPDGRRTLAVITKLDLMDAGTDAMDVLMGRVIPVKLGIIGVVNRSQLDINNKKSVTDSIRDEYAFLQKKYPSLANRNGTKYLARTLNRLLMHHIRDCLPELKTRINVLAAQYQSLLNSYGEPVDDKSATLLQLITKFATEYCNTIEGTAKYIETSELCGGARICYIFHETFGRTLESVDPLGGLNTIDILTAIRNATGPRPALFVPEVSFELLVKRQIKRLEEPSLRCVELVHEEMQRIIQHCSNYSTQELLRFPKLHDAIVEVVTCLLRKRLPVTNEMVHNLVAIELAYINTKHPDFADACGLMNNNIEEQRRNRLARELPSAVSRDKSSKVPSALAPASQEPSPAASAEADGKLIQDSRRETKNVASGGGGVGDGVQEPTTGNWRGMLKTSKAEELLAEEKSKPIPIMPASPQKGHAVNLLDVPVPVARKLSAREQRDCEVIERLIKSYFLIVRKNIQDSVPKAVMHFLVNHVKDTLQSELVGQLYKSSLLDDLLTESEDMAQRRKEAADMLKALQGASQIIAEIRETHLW
UniProt Q8K1M6: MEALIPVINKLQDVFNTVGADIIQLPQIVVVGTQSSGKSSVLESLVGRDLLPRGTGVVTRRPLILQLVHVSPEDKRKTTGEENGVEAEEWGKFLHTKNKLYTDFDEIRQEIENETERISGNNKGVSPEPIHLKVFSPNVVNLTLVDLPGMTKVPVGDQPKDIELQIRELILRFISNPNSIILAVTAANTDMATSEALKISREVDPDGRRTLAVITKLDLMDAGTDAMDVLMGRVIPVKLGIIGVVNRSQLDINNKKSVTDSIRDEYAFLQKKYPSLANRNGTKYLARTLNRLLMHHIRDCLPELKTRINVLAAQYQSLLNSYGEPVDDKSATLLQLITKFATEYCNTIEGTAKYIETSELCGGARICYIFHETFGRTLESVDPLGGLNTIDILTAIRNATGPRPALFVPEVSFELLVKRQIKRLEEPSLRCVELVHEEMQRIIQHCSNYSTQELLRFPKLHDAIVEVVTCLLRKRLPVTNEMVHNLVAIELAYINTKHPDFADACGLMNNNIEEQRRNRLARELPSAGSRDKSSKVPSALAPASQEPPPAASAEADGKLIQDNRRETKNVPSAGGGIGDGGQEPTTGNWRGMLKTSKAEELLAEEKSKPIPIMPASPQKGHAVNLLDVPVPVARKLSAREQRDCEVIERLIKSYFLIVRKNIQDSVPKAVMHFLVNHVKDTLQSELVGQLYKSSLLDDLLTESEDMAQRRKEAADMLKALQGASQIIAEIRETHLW
UniProt P28064: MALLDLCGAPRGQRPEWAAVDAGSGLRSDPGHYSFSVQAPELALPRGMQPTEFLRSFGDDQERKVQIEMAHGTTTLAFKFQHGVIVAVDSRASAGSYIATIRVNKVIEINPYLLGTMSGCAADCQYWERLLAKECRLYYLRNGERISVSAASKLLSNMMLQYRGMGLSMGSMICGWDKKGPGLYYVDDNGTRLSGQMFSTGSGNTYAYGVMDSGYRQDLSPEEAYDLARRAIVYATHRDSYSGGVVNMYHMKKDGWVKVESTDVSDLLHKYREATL

Legend:
[1] = molecular target: Psmb8 (immunoproteasome catalytic subunit β5i), endogenous in mouse heart (mouse (endogenous in heart tissue)) (UniProt P28063); assay: co-IP; mouse heart tissue lysates; IP with anti-Psmb8 antibody or IgG control; blot with anti-Drp1 and anti-Psmb8; lysis buffer 20 mM Tris-HCl pH 7.5, 150 mM NaCl, 0.1% SDS, 1% NP-40; 4 °C overnight
[2] = molecular target: Flag-tagged full-length Psmb8 (UniProt P28062); assay: co-IP; HEK293 cells co-transfected with Flag-Psmb8 and Myc-Drp1 (full length or deletion mutants); IP with anti-Flag; blot with anti-Myc or anti-Flag
[3] = molecular target: dynamin-related protein 1 (Drp1), endogenous in neonatal rat cardiomyocytes (rat (endogenous in NRCMs)) (UniProt O35303); assay: co-IP; NRCM lysates, with or without MG132 (20 µM), under control or H/R condition; IP with anti-Drp1 antibody or IgG control; blot with anti-Drp1 and anti-Psmb8
[4] = molecular target: Myc-tagged full-length Drp1 (UniProt O00429); assay: co-IP; HEK293 cells co-transfected with Flag-Psmb8 (or Flag-GFP-tagged Psmb8 mutants) and Myc-Drp1; IP with anti-Myc; blot with anti-Flag or anti-Myc

binding [1]: binds
Substance: dynamin-related protein 1 (Drp1), endogenous in mouse heart (from UniProt Q8K1M6 1-736)

binding [2]: binds
Substance: Myc-tagged full-length Drp1 (from UniProt O00429 1-736)

binding [3]: binds
Substance: Psmb8 (immunoproteasome catalytic subunit β5i), endogenous in neonatal rat cardiomyocytes (from UniProt P28064)

binding [4]: binds
Substance: Flag-tagged full-length Psmb8 (from UniProt P28062)
